Test results taken from paper PMC7819943, “Rice protein-binding microarrays: a tool to detect cis-acting elements near promoter regions in rice”.
The list shows a part of the results.

Protein sequences, listed by entry. Tags and fused reporters are not part of them.
UniProt Q0JBA9, entry or part of it: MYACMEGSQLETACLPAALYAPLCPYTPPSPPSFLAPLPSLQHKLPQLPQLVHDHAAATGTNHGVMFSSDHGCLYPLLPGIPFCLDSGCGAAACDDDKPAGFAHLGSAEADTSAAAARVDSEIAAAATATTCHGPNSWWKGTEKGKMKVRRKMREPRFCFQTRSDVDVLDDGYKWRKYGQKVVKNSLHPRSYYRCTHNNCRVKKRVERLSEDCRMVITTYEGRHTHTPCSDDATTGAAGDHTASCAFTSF

Molecular target: OsWRKY34 (Oryza sativa, UniProt Q0JBA9 1-250)
Assay: protein-binding microarray (RPBM); PBS, 2% BSA, 51.3 ng/ul salmon testes DNA, 50 uM zinc acetate, 200 nM TF, 25 C, 1 h; high values mean tight binding
Details: protein: recombinant; tags: N-terminal polyhistidine and DsRed monomer fusion (pET32a); label: CyDye5-dUTP incorporated in the synthesized complementary strand; 3' TTTTT single-stranded linker to array surface; dsDNA, one strand shown
Outline: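 Ni–NTA purification followed expression in E. coli BL21-CodonPlus of transcription factors fused N-terminally to a polyhistidine tag and DsRed. At 200 nM in PBS with 2% BSA, salmon testes DNA and 50 µM zinc acetate, the protein was incubated for 1 h at 25 °C with a custom Agilent array that had been primer-extended with Cy5-dUTP and blocked with 2% BSA. After washing, the array was read on an Axon 4000B scanner. The binding signal is per-feature fluorescence intensity in arbitrary units.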

| Sequence | binding signal |
| --- | --- |
| GTAGAGTTTGCGTGCGTGTCAGCGTGTGTTTATAGGAGTGCGGAGTCACCTAGTGCAG | 8120 fluorescence intensity (a.u.) |
| CCACGTCACCTCCTCCGCTATCCCGCGCGCCGCGCGGCGTCGGAGTCACCTAGTGCAG | 8820 fluorescence intensity (a.u.) |
| CTCAGTTCTCGATCGATCTCTTCTTCGTCTTCTGCGTCGTCGGAGTCACCTAGTGCAG | 13300 fluorescence intensity (a.u.) |
| GTTCTTGCTCTCATCTTGCTCGTGGCGTGGTAGTCTTCGACGGAGTCACCTAGTGCAG | 11300 fluorescence intensity (a.u.) |
| TCAGCAAGCACTTAACCAGTTTTGTATTCATCGTTTATTCCGGAGTCACCTAGTGCAG | 12200 fluorescence intensity (a.u.) |
| AAACTCTGGATTTCCGTGCCAACGTTTGACCGTCTGTCTTCGGAGTCACCTAGTGCAG | 8810 fluorescence intensity (a.u.) |
| ACTACTCTTTACTTGAACCTTGAACGTTTGCCCTTGTCAACGGAGTCACCTAGTGCAG | 14100 fluorescence intensity (a.u.) |
| CTGTTGACACTGCCCAGAGATACGAGCATGCATTTTCAAACGGAGTCACCTAGTGCAG | 9020 fluorescence intensity (a.u.) |
| AAGAAATTCGAATGGTTCCGTAGTCCATCACCCTCGCTCACGGAGTCACCTAGTGCAG | 8350 fluorescence intensity (a.u.) |
| TCAATGCCATCCTCATCATGGCAATCACAGCTTGTACGTACGGAGTCACCTAGTGCAG | 9690 fluorescence intensity (a.u.) |
| GGCTCGTCGGATCCTGCTGAATCTCGCGTCGGCGTCGGCGCGGAGTCACCTAGTGCAG | 8170 fluorescence intensity (a.u.) |
| TACACTTGCCCGGTCATAACCCTAACCATTTCTTCCCTTCCGGAGTCACCTAGTGCAG | 9660 fluorescence intensity (a.u.) |
| ACTTGATTTGCTTAAAGGTTTTTCTCGTCTCTAGTTAATTCGGAGTCACCTAGTGCAG | 12000 fluorescence intensity (a.u.) |
| ATGATAGCTTCTCCTCTACTATTAATACCCCTTCTACTTCCGGAGTCACCTAGTGCAG | 9260 fluorescence intensity (a.u.) |
| TCCCCGCAACCATTGTATTTCACGTGACCGCACCGTTGTCCGGAGTCACCTAGTGCAG | 9420 fluorescence intensity (a.u.) |
| GGTGGATTCATGGTGTGTTTAGAACAGTTTTGCTAATAGGCGGAGTCACCTAGTGCAG | 9130 fluorescence intensity (a.u.) |
| CCACCACTGTCCTTCTCGCTTGCCGTGCCTCATCACCGCCCGGAGTCACCTAGTGCAG | 8160 fluorescence intensity (a.u.) |
| TTCCCCGTGCCGTCCGCCGGAGCGGAGCACTCGTTACCATCGGAGTCACCTAGTGCAG | 8380 fluorescence intensity (a.u.) |
| ATACTAGGCTGTATCTCTCTCGCTCTCTTGTTGTTCCCTCCGGAGTCACCTAGTGCAG | 18200 fluorescence intensity (a.u.) |
| GGATCTTCCACCACCCGACTCCAAAGTCCTTCCTAACCCACGGAGTCACCTAGTGCAG | 8250 fluorescence intensity (a.u.) |
| CTCTATGTCTCGCCGTTGCTCCTCTACCTTGCTCTTTCAGCGGAGTCACCTAGTGCAG | 9470 fluorescence intensity (a.u.) |
| CGTAACGTGCCCGTCCGCTTCCGCGCCTCCTCGCCCGCCTCGGAGTCACCTAGTGCAG | 9690 fluorescence intensity (a.u.) |
| GGGGTGGTGGTGGTGGCGGCGGCAGTGTTGTTGGTCGCCGCGGAGTCACCTAGTGCAG | 13500 fluorescence intensity (a.u.) |
| CTCCGCTCCGCTCCACCGCCCGAGTGCTCGCCTGCCGCCGCGGAGTCACCTAGTGCAG | 9060 fluorescence intensity (a.u.) |
| CTCGTCGTCTCCTCCGCTCCTTGCGCCATCTCGCGGCTGACGGAGTCACCTAGTGCAG | 11500 fluorescence intensity (a.u.) |
| ACAACTTCTTGTTCAATCGACTTGTTTATTACTGATTTTACGGAGTCACCTAGTGCAG | 9340 fluorescence intensity (a.u.) |
| TCGAAACCCGTTCACCGCATATTTATCTGAACCTCGTACACGGAGTCACCTAGTGCAG | 8140 fluorescence intensity (a.u.) |

Part of the list above, set out differently.
TCAGCAAGCACTTAACCAGTTTTGTATTCATCGTTTATTCCGGAGTCACCTAGTGCAG
  binding signal: 12200 fluorescence intensity (a.u.)
TACACTTGCCCGGTCATAACCCTAACCATTTCTTCCCTTCCGGAGTCACCTAGTGCAG
  binding signal: 9660 fluorescence intensity (a.u.)

2 successive records already listed, quoted:

| Sequence | binding signal |
| --- | --- |
| CTGTTGACACTGCCCAGAGATACGAGCATGCATTTTCAAACGGAGTCACCTAGTGCAG | 9020 fluorescence intensity (a.u.) |
| AAGAAATTCGAATGGTTCCGTAGTCCATCACCCTCGCTCACGGAGTCACCTAGTGCAG | 8350 fluorescence intensity (a.u.) |

Later entries:

| Sequence | binding signal |
| --- | --- |
| AGATTATTATTCATTTGTAAATATACCGTTTGGCTTATTCCGGAGTCACCTAGTGCAG | 10700 fluorescence intensity (a.u.) |
| TCCCTTTTCTTATCCCATCCGTGGCCATCTCTGAAAAGGACGGAGTCACCTAGTGCAG | 10600 fluorescence intensity (a.u.) |
| CCTCCTCCTCACGCTCCGCGCGCCGCACGCCCGCCTCGCCCGGAGTCACCTAGTGCAG | 9000 fluorescence intensity (a.u.) |
| TTCTAAGAAATCCTTCAAGCGGCCGGCTTATCGCTTTATCCGGAGTCACCTAGTGCAG | 15800 fluorescence intensity (a.u.) |
| AAACAAGACCATAATGTATTAATCACTTGCGTTGACAACACGGAGTCACCTAGTGCAG | 8360 fluorescence intensity (a.u.) |
| AATTTGTGTACTAATAAATCAATTCGTTTTGCGGGCGGGACGGAGTCACCTAGTGCAG | 8380 fluorescence intensity (a.u.) |
| TGCACTTCACTCTTGTTCTTTTAACTTACTGTATGCATAACGGAGTCACCTAGTGCAG | 8080 fluorescence intensity (a.u.) |
| TTGCCAACGTGGAGGGGAGGAGACAGCCGGGGTGGTGCATCGGAGTCACCTAGTGCAG | 8270 fluorescence intensity (a.u.) |
| CCACCACCTCGCCATCGACCGTCCATCCAGGTCACCCCGACGGAGTCACCTAGTGCAG | 8180 fluorescence intensity (a.u.) |
| GGCTGGCTACCCACCCACCGAACGGCGTGCGCGCGGACAACGGAGTCACCTAGTGCAG | 8340 fluorescence intensity (a.u.) |
| TCCTTCTTTTACCGGCGTCACGTATAATTGCAGGTTGGCTCGGAGTCACCTAGTGCAG | 8830 fluorescence intensity (a.u.) |
| CTTGTCAACCTAACCTGAACCCTTTTGCACACACACACACCGGAGTCACCTAGTGCAG | 11200 fluorescence intensity (a.u.) |
| ACACATGTCTTGCAGTACCCGTTTACTCTTTATTCCCATGCGGAGTCACCTAGTGCAG | 12000 fluorescence intensity (a.u.) |
| CATTCCTATCAAAATCCTACGTTTTTCCTATTCCTACGTTCGGAGTCACCTAGTGCAG | 9840 fluorescence intensity (a.u.) |
| GGCCGCCTCCTCGCCGTCGTCTCCTCTCCTCTCACTTGTCCGGAGTCACCTAGTGCAG | 9850 fluorescence intensity (a.u.) |
| CAACACATTCTCTGTCTCTCTCTCGCTTTCTAGTTCTTGGCGGAGTCACCTAGTGCAG | 10300 fluorescence intensity (a.u.) |
| TGTCTTTCCCACCATCTGTCGCGCCTCCAACGACTCTCGCCGGAGTCACCTAGTGCAG | 8840 fluorescence intensity (a.u.) |
| ACTTTGTCACTTGACTTATTCTCTGGCCGTGCGTATAAATCGGAGTCACCTAGTGCAG | 8150 fluorescence intensity (a.u.) |
| GTTGTGTTCACCTCACCACTATCACTGAACATTCCTCTTACGGAGTCACCTAGTGCAG | 10100 fluorescence intensity (a.u.) |
| CGTCGTTGCTAAGAAATCGGCGCCGTGCTCCTCTTCTCTTCGGAGTCACCTAGTGCAG | 8190 fluorescence intensity (a.u.) |
| TCTCTCGCCGATTCCGCCACCGCCGCCGCGCCGCGCCTCGCGGAGTCACCTAGTGCAG | 9420 fluorescence intensity (a.u.) |
| GATGTTAAGTTTTGGGCATATGATTGAATTGTCTTATATACGGAGTCACCTAGTGCAG | 8080 fluorescence intensity (a.u.) |
| CAAACGGTAGGGGTATGTAGGGGATCCAATCGAAAATTTACGGAGTCACCTAGTGCAG | 8390 fluorescence intensity (a.u.) |
| ACCGGTTTGACCACGCCACTTCCTGCACCAGTCCACATACCGGAGTCACCTAGTGCAG | 8250 fluorescence intensity (a.u.) |
| GTAGTTGTATCATTTTTGTTTTCTTGTGAGATGCCAATCACGGAGTCACCTAGTGCAG | 8560 fluorescence intensity (a.u.) |
| TCTGGGATTTTTTTTCTGCATTTAGGGGTACTGTTTCCATCGGAGTCACCTAGTGCAG | 11200 fluorescence intensity (a.u.) |
| CATCACATCATCATTCCATCCCATTCATCCCTATCCTTCACGGAGTCACCTAGTGCAG | 9300 fluorescence intensity (a.u.) |
